Data reported in PMC4376871.
These are yes or no findings as the source states them, for the method shown. Binding can be weak; no strength is given. Where a sequence is shown, tags or fusion partners need not be part of it.

How the values were obtained:
Test in all cases: two-hybrid; Matchmaker Two-Hybrid System 3, yeast AH109; C4 on the GAL4 activation domain, AtSKs and Lamin C on the GAL4 DNA binding domain; growth curves (OD600) in quadruple dropout medium at 30°C, high stringency
[1] = target: T1, Arabidopsis SHAGGY-like protein kinase AtSK11 fused to the GAL4 DNA binding domain (Arabidopsis thaliana (ecotype Sei-0 cDNA)) (UniProt P43288)
T1 sequence: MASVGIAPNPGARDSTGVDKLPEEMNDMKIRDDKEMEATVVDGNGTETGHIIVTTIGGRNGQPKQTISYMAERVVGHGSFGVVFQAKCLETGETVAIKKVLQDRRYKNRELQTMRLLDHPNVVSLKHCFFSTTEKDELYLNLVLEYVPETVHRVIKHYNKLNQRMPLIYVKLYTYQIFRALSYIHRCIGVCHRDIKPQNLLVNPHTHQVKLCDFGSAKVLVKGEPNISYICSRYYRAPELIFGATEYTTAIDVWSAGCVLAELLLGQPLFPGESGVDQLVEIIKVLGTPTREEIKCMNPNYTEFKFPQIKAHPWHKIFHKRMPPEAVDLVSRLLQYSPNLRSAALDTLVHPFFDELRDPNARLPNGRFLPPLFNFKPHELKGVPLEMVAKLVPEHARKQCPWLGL

[2] = target: T2, Arabidopsis SHAGGY-like protein kinase AtSK12 fused to the GAL4 DNA binding domain (Arabidopsis thaliana (ecotype Sei-0 cDNA)) (UniProt P43289)
T2 sequence: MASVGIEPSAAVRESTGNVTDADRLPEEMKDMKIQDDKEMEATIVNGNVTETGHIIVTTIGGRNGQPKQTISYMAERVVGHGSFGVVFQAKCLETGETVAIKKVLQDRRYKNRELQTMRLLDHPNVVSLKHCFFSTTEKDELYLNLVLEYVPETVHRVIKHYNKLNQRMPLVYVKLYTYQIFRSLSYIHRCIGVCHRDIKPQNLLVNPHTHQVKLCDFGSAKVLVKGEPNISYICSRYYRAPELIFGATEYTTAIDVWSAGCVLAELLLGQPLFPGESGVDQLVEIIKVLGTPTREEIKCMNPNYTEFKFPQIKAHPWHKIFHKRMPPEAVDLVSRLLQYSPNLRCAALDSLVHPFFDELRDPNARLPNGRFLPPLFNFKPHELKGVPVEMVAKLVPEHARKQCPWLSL

[3] = target: T3, Arabidopsis SHAGGY-like protein kinase AtSK13 fused to the GAL4 DNA binding domain (Arabidopsis thaliana (ecotype Sei-0 cDNA)) (UniProt Q8VZD5)
T3 sequence: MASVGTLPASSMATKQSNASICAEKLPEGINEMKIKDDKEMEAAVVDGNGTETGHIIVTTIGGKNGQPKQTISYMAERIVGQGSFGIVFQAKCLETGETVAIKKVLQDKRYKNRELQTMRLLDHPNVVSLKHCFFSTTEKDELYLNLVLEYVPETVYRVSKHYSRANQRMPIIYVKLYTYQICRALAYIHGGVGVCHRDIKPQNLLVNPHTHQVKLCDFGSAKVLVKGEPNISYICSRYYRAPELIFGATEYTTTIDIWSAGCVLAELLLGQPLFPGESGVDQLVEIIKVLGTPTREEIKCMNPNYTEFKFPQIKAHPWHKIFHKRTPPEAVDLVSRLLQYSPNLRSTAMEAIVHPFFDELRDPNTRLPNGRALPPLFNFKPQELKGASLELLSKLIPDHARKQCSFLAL

[4] = target: T4, Arabidopsis SHAGGY-like protein kinase AtSK21 fused to the GAL4 DNA binding domain (Arabidopsis thaliana (ecotype Sei-0 cDNA)) (UniProt Q39011)
T4 sequence: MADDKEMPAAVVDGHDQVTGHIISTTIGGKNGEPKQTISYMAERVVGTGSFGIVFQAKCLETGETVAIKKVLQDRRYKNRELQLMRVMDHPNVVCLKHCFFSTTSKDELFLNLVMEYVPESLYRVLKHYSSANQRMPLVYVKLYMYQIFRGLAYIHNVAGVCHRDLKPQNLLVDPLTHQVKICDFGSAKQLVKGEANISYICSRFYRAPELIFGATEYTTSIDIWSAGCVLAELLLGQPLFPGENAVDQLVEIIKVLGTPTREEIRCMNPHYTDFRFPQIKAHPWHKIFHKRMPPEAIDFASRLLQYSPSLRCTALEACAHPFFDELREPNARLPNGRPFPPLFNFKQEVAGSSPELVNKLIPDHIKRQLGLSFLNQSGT

[5] = target: T5, Arabidopsis SHAGGY-like protein kinase AtSK23 fused to the GAL4 DNA binding domain (Arabidopsis thaliana (ecotype Sei-0 cDNA)) (UniProt Q39010)
T5 sequence: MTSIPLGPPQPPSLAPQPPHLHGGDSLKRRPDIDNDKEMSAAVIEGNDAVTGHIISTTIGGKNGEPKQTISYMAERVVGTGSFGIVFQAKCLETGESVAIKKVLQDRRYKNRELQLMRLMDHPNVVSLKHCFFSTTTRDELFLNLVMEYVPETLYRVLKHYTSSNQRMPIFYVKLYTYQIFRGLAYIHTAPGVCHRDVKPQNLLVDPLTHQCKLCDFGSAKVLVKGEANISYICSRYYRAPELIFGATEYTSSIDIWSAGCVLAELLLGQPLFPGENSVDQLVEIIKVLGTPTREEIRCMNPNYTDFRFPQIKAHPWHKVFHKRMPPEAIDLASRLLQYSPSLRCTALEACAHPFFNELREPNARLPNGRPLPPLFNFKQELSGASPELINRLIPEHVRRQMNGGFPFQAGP

Measured: binding

Beet curly top virus (BCTV-B[US:Logan:76]) C4 protein fused to the GAL4 activation domain
binds: [1] | [2] | [3] | [4] | [5]
